Data as given in PubChem BioAssay AID743458 (Peter MacCallum Cancer Centre, 2014)
Test: 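Identify genes whose loss lifts vorinostat resistance in colon cancer cells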 (follow-up of hits). Cell system: human HCT116-VR colon cancer cells made resistant to vorinostat. Knock-down reagent: single siRNA or pool against human genes, 25 nM per single siRNA. Timing: about 72 h after transfection, including 24 h of drug. Challenge: vorinostat, 2.5 µM final, for 24 h. Detection: 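Live-cell fluorescent viability and luminescent caspase 3/7 activity after vorinostat treatment, background subtracted, mean of duplicate plates, as fold change over mock-transfected wells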. Direction: viability relative to mock: higher = more living cells than mock; caspase activity relative to mock: higher = more apoptosis than mock. Active means: 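An siRNA counts as active if classed as reduced viability or as caspase activation, otherwise inactive; a hit class needed wells that remained healthy in the absence of drug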.
The deposit covers about 1,800 reagents; shown is a part drawn at random. 732 of them (41%) count as active. 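Calls are per siRNA reagent; a gene was deemed confirmed only if most of its four siRNAs scored.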 The numbers tell different reagents against one gene apart.

gene | reagent no. | viability relative to mock | caspase activity relative to mock | viability hit class | caspase hit class | activity call
CHCHD10 (coiled-coil-helix-coiled-coil-helix domain containing 10) | 1 | 0.47 | 5.39 | reduced viability | caspase activation | active
CHCHD10 (coiled-coil-helix-coiled-coil-helix domain containing 10) | 2 | 0.57 | 2.28 | no change | no change | inactive
CHCHD10 (coiled-coil-helix-coiled-coil-helix domain containing 10) | 3 | 0.62 | 1.97 | no change | no change | inactive
CHCHD10 (coiled-coil-helix-coiled-coil-helix domain containing 10) | 4 | 0.74 | 2.1 | no change | no change | inactive
RNF215 (ring finger protein 215) | 1 | 0.81 | 2.16 | no change | no change | inactive
RNF215 (ring finger protein 215) | 2 | 0.88 | 2.79 | no change | caspase activation | active
RNF215 (ring finger protein 215) | 3 | 0.54 | 2.62 | reduced viability | caspase activation | active
RNF215 (ring finger protein 215) | 4 | 1.05 | 1.08 | no change | no change | inactive
C22orf15 (chromosome 22 open reading frame 15) | 1 | 0.69 | 2.46 | no change | no change | inactive
C22orf15 (chromosome 22 open reading frame 15) | 2 | 0.73 | 2.32 | no change | no change | inactive
C22orf15 (chromosome 22 open reading frame 15) | 3 | 0.65 | 3.37 | no change | caspase activation | active
C22orf15 (chromosome 22 open reading frame 15) | 4 | 0.8 | 1.4 | no change | no change | inactive
NRIP2 (nuclear receptor interacting protein 2) | 1 | 0.94 | 5.4 | no change | caspase activation | active
NRIP2 (nuclear receptor interacting protein 2) | 2 | 0.86 | 1.67 | no change | no change | inactive
NRIP2 (nuclear receptor interacting protein 2) | 3 | 0.79 | 1.12 | no change | no change | inactive
NRIP2 (nuclear receptor interacting protein 2) | 4 | 0.1 | 4.19 | no change | no change | inactive
CATSPER4 (cation channel sperm associated 4) | 1 | 0.88 | 1.03 | no change | no change | inactive
CATSPER4 (cation channel sperm associated 4) | 2 | 0.38 | 2.29 | reduced viability | no change | active
CATSPER4 (cation channel sperm associated 4) | 3 | 0.82 | 1.56 | no change | no change | inactive
CATSPER4 (cation channel sperm associated 4) | 4 | 0.92 | 1.23 | no change | no change | inactive
CCDC59 (coiled-coil domain containing 59) | 1 | 0.62 | 2.34 | no change | no change | inactive
CCDC59 (coiled-coil domain containing 59) | 2 | 1.12 | 1.77 | no change | no change | inactive
CCDC59 (coiled-coil domain containing 59) | 3 | 0.61 | 4.21 | no change | caspase activation | active
CCDC59 (coiled-coil domain containing 59) | 4 | 0.71 | 2.65 | no change | caspase activation | active
DCUN1D2 (defective in cullin neddylation 1 domain containing 2) | 1 | 0.8 | 2.13 | no change | no change | inactive
DCUN1D2 (defective in cullin neddylation 1 domain containing 2) | 2 | 1.02 | 1.32 | no change | no change | inactive
DCUN1D2 (defective in cullin neddylation 1 domain containing 2) | 3 | 0.92 | 0.97 | no change | no change | inactive
DCUN1D2 (defective in cullin neddylation 1 domain containing 2) | 4 | 0.81 | 0.92 | no change | no change | inactive
DCUN1D2 (defective in cullin neddylation 1 domain containing 2) | 5 | 1.06 | 4.65 | no change | caspase activation | active
GPRIN3 (GPRIN family member 3) | 1 | 0.32 | 2.86 | no change | no change | inactive
GPRIN3 (GPRIN family member 3) | 2 | 0.88 | 1.7 | no change | no change | inactive
GPRIN3 (GPRIN family member 3) | 3 | 0.26 | 4.55 | no change | no change | inactive
GPRIN3 (GPRIN family member 3) | 4 | 1.06 | 2.62 | no change | caspase activation | active
ZNF490 (zinc finger protein 490) | 1 | 1 | 0.96 | no change | no change | inactive
ZNF490 (zinc finger protein 490) | 2 | 0.9 | 1.06 | no change | no change | inactive
ZNF490 (zinc finger protein 490) | 3 | 1.05 | 1.02 | no change | no change | inactive
ZNF490 (zinc finger protein 490) | 4 | 0.17 | 1.87 | reduced viability | no change | active

Reformatted: entries from further up
gene	reagent no.	viability relative to mock	caspase activity relative to mock	viability hit class	caspase hit class	activity call
DCUN1D2 (defective in cullin neddylation 1 domain containing 2)	1	0.8	2.13	no change	no change	inactive
DCUN1D2 (defective in cullin neddylation 1 domain containing 2)	2	1.02	1.32	no change	no change	inactive
DCUN1D2 (defective in cullin neddylation 1 domain containing 2)	3	0.92	0.97	no change	no change	inactive
DCUN1D2 (defective in cullin neddylation 1 domain containing 2)	4	0.81	0.92	no change	no change	inactive
DCUN1D2 (defective in cullin neddylation 1 domain containing 2)	5	1.06	4.65	no change	caspase activation	active

Further entries follow.
gene | reagent no. | viability relative to mock | caspase activity relative to mock | viability hit class | caspase hit class | activity call
SERTAD1 (SERTA domain containing 1) | 1 | 0.52 | 3.38 | reduced viability | caspase activation | active
SERTAD1 (SERTA domain containing 1) | 2 | 0.9 | 3.3 | no change | caspase activation | active
SERTAD1 (SERTA domain containing 1) | 3 | 0.72 | 1.48 | no change | no change | inactive
SERTAD1 (SERTA domain containing 1) | 4 | 0.7 | 2.75 | no change | caspase activation | active
PRKAA2 (protein kinase AMP-activated catalytic subunit alpha 2) | 1 | 1.1 | 1.29 | no change | no change | inactive
PRKAA2 (protein kinase AMP-activated catalytic subunit alpha 2) | 2 | 0.9 | 1.4 | no change | no change | inactive
PRKAA2 (protein kinase AMP-activated catalytic subunit alpha 2) | 3 | 0.46 | 4.14 | reduced viability | caspase activation | active
PRKAA2 (protein kinase AMP-activated catalytic subunit alpha 2) | 4 | 1.07 | 1.7 | no change | no change | inactive
GNG8 (G protein subunit gamma 8) | 1 | 0.3 | 1.83 | no change | no change | inactive
GNG8 (G protein subunit gamma 8) | 2 | 0.9 | 4.02 | no change | caspase activation | active
GNG8 (G protein subunit gamma 8) | 3 | 0.66 | 4.28 | no change | caspase activation | active
GNG8 (G protein subunit gamma 8) | 4 | 0.64 | 3.67 | no change | caspase activation | active
MXD1 (MAX dimerization protein 1) | 1 | 0.82 | 1.37 | no change | no change | inactive
MXD1 (MAX dimerization protein 1) | 2 | 0.78 | 1.61 | no change | no change | inactive
MXD1 (MAX dimerization protein 1) | 3 | 0.62 | 2.21 | no change | no change | inactive
MXD1 (MAX dimerization protein 1) | 4 | 0.38 | 3.06 | reduced viability | caspase activation | active
CD1B (CD1b molecule) | 1 | 1.14 | 1.1 | no change | no change | inactive
CD1B (CD1b molecule) | 2 | 0.9 | 1.31 | no change | no change | inactive
CD1B (CD1b molecule) | 3 | 0.88 | 0.94 | no change | no change | inactive
CD1B (CD1b molecule) | 4 | 0.95 | 1.28 | no change | no change | inactive
THSD7B (thrombospondin type 1 domain containing 7B) | 1 | 1.07 | 1.86 | no change | no change | inactive
THSD7B (thrombospondin type 1 domain containing 7B) | 2 | 0.94 | 1.24 | no change | no change | inactive
THSD7B (thrombospondin type 1 domain containing 7B) | 3 | 0.82 | 3.01 | no change | caspase activation | active
THSD7B (thrombospondin type 1 domain containing 7B) | 4 | 0.76 | 3.34 | no change | caspase activation | active
SMARCD2 (SWI/SNF related BAF chromatin remodeling complex subunit D2) | 1 | 0.85 | 0.91 | no change | no change | inactive
SMARCD2 (SWI/SNF related BAF chromatin remodeling complex subunit D2) | 2 | 0.86 | 0.99 | no change | no change | inactive
SMARCD2 (SWI/SNF related BAF chromatin remodeling complex subunit D2) | 3 | 0.81 | 1.64 | no change | no change | inactive
SMARCD2 (SWI/SNF related BAF chromatin remodeling complex subunit D2) | 4 | 0.8 | 0.88 | no change | no change | inactive
PRRT3 (proline rich transmembrane protein 3) | 1 | 0.7 | 3.25 | no change | caspase activation | active
PRRT3 (proline rich transmembrane protein 3) | 2 | 0.55 | 6.63 | reduced viability | caspase activation | active
PRRT3 (proline rich transmembrane protein 3) | 3 | 0.66 | 4.26 | no change | caspase activation | active
PRRT3 (proline rich transmembrane protein 3) | 4 | 0.62 | 0.68 | no change | no change | inactive
MED28 (mediator complex subunit 28) | 1 | 0.48 | 4.08 | no change | no change | inactive
MED28 (mediator complex subunit 28) | 2 | 0.87 | 4.32 | no change | caspase activation | active
MED28 (mediator complex subunit 28) | 3 | 0.7 | 1.02 | no change | no change | inactive
MED28 (mediator complex subunit 28) | 4 | 0.99 | 3.08 | no change | caspase activation | active
